No constants are given. Whether binding was seen depends on the method and setting. Binding seen in cells or lysates may run through a third protein. Some results given as binding are weak or reduced against the parent protein; the word gives no strength.

Chains of the proteins cited; added tags and fusions are not shown. Lines headed by an entry give the natural chain unless they say otherwise; changes in a name come on top. A line that says so, or that is headed by a name, gives the form on record, which may keep a tag or linker. Residues count along the entry.
UniProt P12004: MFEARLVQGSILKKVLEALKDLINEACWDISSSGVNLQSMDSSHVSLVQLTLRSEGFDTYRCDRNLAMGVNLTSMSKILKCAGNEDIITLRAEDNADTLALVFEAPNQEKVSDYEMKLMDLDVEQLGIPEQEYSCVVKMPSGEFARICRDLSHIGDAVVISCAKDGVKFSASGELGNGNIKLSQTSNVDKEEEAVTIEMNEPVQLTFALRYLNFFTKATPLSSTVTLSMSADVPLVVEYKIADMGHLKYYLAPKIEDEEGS
UniProt P10275: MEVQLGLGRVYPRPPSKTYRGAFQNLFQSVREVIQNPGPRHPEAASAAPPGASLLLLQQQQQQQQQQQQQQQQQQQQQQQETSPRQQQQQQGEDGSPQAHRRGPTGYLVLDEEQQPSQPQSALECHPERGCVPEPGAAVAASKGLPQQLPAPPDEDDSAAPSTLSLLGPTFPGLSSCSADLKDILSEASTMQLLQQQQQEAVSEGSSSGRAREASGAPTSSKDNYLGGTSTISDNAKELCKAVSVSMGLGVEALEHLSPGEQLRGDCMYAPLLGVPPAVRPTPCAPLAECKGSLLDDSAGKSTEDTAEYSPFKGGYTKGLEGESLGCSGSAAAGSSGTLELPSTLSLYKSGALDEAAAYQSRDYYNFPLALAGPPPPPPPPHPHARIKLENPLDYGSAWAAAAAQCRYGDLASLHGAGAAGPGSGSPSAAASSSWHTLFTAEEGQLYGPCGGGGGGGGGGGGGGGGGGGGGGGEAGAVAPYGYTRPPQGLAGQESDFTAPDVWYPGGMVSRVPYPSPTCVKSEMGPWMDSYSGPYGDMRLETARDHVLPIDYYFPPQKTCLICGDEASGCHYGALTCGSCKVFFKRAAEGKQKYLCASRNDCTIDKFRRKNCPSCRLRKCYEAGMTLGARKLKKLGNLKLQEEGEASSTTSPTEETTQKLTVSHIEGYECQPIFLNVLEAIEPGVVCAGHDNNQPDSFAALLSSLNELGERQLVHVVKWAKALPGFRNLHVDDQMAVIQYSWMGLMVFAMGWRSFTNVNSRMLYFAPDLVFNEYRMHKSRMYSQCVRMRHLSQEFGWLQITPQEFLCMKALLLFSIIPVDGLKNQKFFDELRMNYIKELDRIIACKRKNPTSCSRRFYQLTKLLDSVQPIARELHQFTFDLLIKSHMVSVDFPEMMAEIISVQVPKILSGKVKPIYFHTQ
HA-AR-V7 (containing both the NTD and DBD, AR1-628 aa): residues 1-628 of P10275
HA-AR-V7-PIP4m (HA-AR-V7 with deletion of PIP-box4) (P10275-1, form named): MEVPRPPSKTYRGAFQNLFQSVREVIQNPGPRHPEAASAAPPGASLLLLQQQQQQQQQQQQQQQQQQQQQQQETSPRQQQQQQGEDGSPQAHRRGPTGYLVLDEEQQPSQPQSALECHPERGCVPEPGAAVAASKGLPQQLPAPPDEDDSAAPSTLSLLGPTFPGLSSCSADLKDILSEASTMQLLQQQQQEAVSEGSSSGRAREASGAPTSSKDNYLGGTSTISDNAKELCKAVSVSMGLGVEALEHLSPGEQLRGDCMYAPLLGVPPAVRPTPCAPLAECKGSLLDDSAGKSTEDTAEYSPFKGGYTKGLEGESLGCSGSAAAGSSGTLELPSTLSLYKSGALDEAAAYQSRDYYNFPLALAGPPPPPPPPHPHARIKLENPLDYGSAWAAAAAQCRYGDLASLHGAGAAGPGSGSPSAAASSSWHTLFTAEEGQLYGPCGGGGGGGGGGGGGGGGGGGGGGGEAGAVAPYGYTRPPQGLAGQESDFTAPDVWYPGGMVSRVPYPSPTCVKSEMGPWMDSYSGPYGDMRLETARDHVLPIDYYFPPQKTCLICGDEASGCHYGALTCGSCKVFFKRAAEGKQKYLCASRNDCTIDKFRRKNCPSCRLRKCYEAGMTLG

The experiment addresses GST-PCNA (proliferating cell nuclear antigen) (UniProt P12004). The experiment in a line: pull-down; GST-PCNA protein (5-10 ug) incubated with 1 mg of cell extract in modified RIPA buffer (PBS, 0.1% NP-40, 0.1% sodium deoxycholate, 50 mM NaCl, 1 mM EDTA, 1 mM DTT) at 4 C overnight; immunoblot with HA-tag or AR(441) antibody; cells without or with dihydrotestosterone (10^-8 M) overnight; 22Rv1 extracts also without or with 30 uM T2AA; only the target purified. (Immunoblotting shows a protein as a band on a membrane.)
With “HA-AR-NTD (AR N-terminal domain, AR1-539aa) (from UniProt P10275 1-539) (domain or fragment)”, the binding result is “binds”.

Regarding “HA-AR-V7-PIP4m (HA-AR-V7 with deletion of PIP-box4) (from UniProt P10275-1 1-628) (domain or fragment)”, the binding result is listed as “binds”.

Regarding “HA-AR-V7 (containing both the NTD and DBD, AR1-628 aa) (from UniProt P10275-1 1-628) (domain or fragment)”, the binding entry is on record as “binds”.

On to “AR-FL (full-length androgen receptor, expression vector without HA tag) (from UniProt P10275 1-920)”, for which the binding result was “binds”.

The values are drawn from article PMC12219270.
